Measured values reported in paper PMC12431657, “Discovery and mechanistic insights of dibenzoylmethane as a broad spectrum inhibitor of coronavirus” (PLOS Pathogens, 2025).
Counter-ions that a name gives are not always drawn. Like-named read-outs stand apart in the source and are kept apart here. About 60 (2%) of roughly 3,300 compounds showed an effect of 50% or more. Some of the results follow.

System: HCoV-OC43
Parameters: species or system RD; HTS, protection from HCoV-OC43 induced cell death, luminescent cell viability (CellCounting-Lite 2.0), inhibition rate
Settings: 24 h post infection, 1 h compound pre-incubation, 10 µM, inhibitor

SMILES	OC43 Inhibition rate	OC43 Inhibition rate (OC43 Inhibition rate, 24 h)
CC(C)(S)[C@@H](N)C(=O)O [Penicillamine]	-0.5%	–
C[C@H](CC[C@@H](O[C@@H]1O[C@H](CO)[C@@H](O)[C@H](O)[C@H]1O[C@@H]1O[C@H](CO)[C@@H](O)[C@H](O)[C@H]1O)C(C)(C)O)[C@H]1CC[C@@]2(C)[C@@H]3CC=C4[C@@H](CC[C@H](O[C@@H]5O[C@H](CO)[C@@H](O)[C@H](O)[C@H]5O)C4(C)C)[C@]3(C)[C@H](O)C[C@]12C [Mogroside III-E]	2.2%	–
Cc1ncc(C[n+]2csc(CCO)c2C)c(N)n1 [Thiamine monochloride]	–	2.4%
O=c1cccccc1 [Tropone]	-0.5%	–
CN1[C@H]2C[C@H](OC(=O)[C@H](CO)c3ccccc3)C[C@@H]1[C@@H](O)C2 [Anisodamine (hydrobromide)]	–	-0.1%
CC(=O)c1ccc(O)cc1C [4′-Hydroxy-2′-methylacetophenone]	2.7%	–
COc1cc2c(c(OC)c1OC)-c1c(cc3c(c1OC)OCO3)C[C@H](C)[C@@](C)(O)C2 [Schisandrol B]	-0.2%	–
O=C(CO)CO [1,3-Dihydroxyacetone]	0.1%	–
C=C(C)[C@@H]1CC[C@]2(C)CC[C@]3(C)[C@H](CC[C@@H]4[C@@]5(C)CCC(=O)C(C)(C)[C@@H]5CC[C@]43C)[C@@H]12 [Lupenone]	-1.5%	–
Cn1c(=O)c2c(ncn2CC(=O)O)n(C)c1=O [Acefylline]	0%	–
CC(=O)N[C@@H](CC(=O)O)C(=O)O [N-Acetyl-L-aspartic acid]	-0.4%	–
O=C1O[C@H](CO)[C@@H](O)[C@H](O)[C@H]1O [D-(+)-Glucono-1,5-lactone]	-0.8%	–
COc1cc2c(cc1O)C[C@H]1c3c(cc(O)c(OC)c3-2)CCN1C [Boldine]	-0.3%	–
N[C@@H](CCC(=O)N[C@@H](CS)C(=O)O)C(=O)O [Gamma-glutamylcysteine]	2%	–
OC[C@@H](O)C(O)[C@H](O)CO [D-Arabitol]	0.1%	–
O=C1CCCCC1=O [1,2-Cyclohexanedione]	0.8%	–
CCCCC(C)CCC(=O)O (centres unmarked) [4-Methyloctanoic acid]	-0.5%	–
CC(=O)N[C@@H](CCC(N)=O)C(=O)O [Aceglutamide]	-0.8%	–
COc1cc(O)c2c(=O)c(O)c(-c3ccc(O)c(O)c3)oc2c1 [Rhamnetin]	8.3%	–

SMILES	OC43 Inhibition rate	OC43 Inhibition rate (OC43 Inhibition rate, 24 h)
O=C1c2c(O)cc(O)cc2O[C@H](c2ccc(O)cc2)[C@H]1O [Dihydrokaempferol]	1.5%	–
OC[C@H]1O[C@@H](Oc2cc(O)ccc2/C=C/c2cc(O)cc(O)c2)[C@H](O)[C@@H](O)[C@@H]1O [Oxyresveratrol 2-O-β-D-glucopyranoside]	2.1%	–
CC(/C=C/C=C(\C)C(=O)O)=C\C=C\C=C(C)\C=C\C=C(/C)C(=O)O [Crocetin]	–	5.6%
O=C[C@H](O)[C@@H](O)[C@@H](CO)O[C@@H]1OC[C@@H](O[C@@H]2OC[C@@H](O[C@@H]3OC[C@@H](O[C@@H]4OC[C@@H](O)[C@H](O)[C@H]4O)[C@H](O)[C@H]3O)[C@H](O)[C@H]2O)[C@H](O)[C@H]1O [1,4-b-D-Xylopentaose]	6%	–
OC[C@H]1OC(O[C@H]2[C@H](O)[C@@H](CO)OC(O[C@H]3[C@H](O)[C@@H](CO)OC(O)[C@@H]3O)[C@@H]2O)[C@H](O)[C@@H](O)[C@@H]1O (some centres unmarked) [Laminaran]	-0.3%	–
C[C@@H]([C@H](C)O)[C@H](N)C(=O)O [(2S,3R,4S)-4-Hydroxyisoleucine]	-1.8%	–
C/C(=C\C(=O)CC(C)C(=O)O)[C@H]1C[C@H](O)[C@@]2(C)C3=C(C(=O)C[C@]12C)[C@@]1(C)CCC(=O)C(C)(C)[C@@H]1C[C@@H]3O (some centres unmarked) [Ganoderenic acid A]	-0.5%	–
CC(C)[C@@H]1CC[C@@H](C)C[C@H]1O [(-)-Menthol]	–	-0.7%
O=C(/C=C/c1ccc(O)c(O)c1)O[C@@H]1C[C@](OC(=O)/C=C/c2ccc(O)c(O)c2)(C(=O)O)C[C@@H](O)[C@H]1O [1,3-Dicaffeoylquinic acid]	0.6%	–
COc1cc([C@@H]2Oc3c(O)cc([C@H]4Oc5cc(O)cc(O)c5C(=O)[C@@H]4O)cc3[C@H]2CO)ccc1O [Silychristin]	-0.5%	–
COC(=O)c1ccccc1O [Methyl Salicylate]	8%	–
O=C(O)c1ccc2ccccc2c1O [1-Hydroxy-2-naphthoic acid]	-0.4%	–
O=C1O[C@H]2[C@@H]3OC(=O)c4cc(O)c(O)c(O)c4-c4c(O)c(O)c5oc(=O)c6c(c(O)c(O)c7oc(=O)c4c5c76)-c4c(cc(O)c(O)c4O)C(=O)OC[C@H]3OC(O)[C@@H]2OC(=O)c2cc(O)c(O)c(O)c2-c2c1cc(O)c(O)c2O (mixture of isomers) [Punicalagin]	-1.3%	–
c1csc(-c2ccc(-c3cccs3)s2)c1 [2,2':5',2''-Terthiophene]	-0.6%	–
OCC1=C[C@@H](O)[C@@H]2C=CO[C@@H](O[C@@H]3O[C@H](CO)[C@@H](O)[C@H](O)[C@H]3O)[C@H]12 [Aucubin]	-2.1%	–
O=c1c(O)c(-c2ccc(O[C@@H]3O[C@H](CO)[C@@H](O)[C@H](O)[C@H]3O)c(O)c2)oc2cc(O)cc(O)c12 [Spiraeoside]	-0.7%	–
COc1c(O[C@@H]2O[C@H](CO[C@@H]3OC[C@@H](O)[C@H](O)[C@H]3O)[C@@H](O)[C@H](O)[C@H]2O)cc2occ(-c3ccc(O)cc3)c(=O)c2c1O [Tectorigenin 7-O-Xylosyl Glucoside]	1.7%	–
CN(C)c1nc2c(ncn2[C@@H]2O[C@H](CO)[C@@H](O)[C@H]2O)c(=O)[nH]1 [N2,N2-Dimethylguanosine]	-0.5%	–
CC(=O)NCCc1c[nH]c2ccc(O)cc12 [N-Acetyl-5-hydroxytryptamine]	0%	–

Gathered by group: the entries above with an NH in an aromatic ring.
SMILES	OC43 Inhibition rate	OC43 Inhibition rate (OC43 Inhibition rate, 24 h)
CN(C)c1nc2c(ncn2[C@@H]2O[C@H](CO)[C@@H](O)[C@H]2O)c(=O)[nH]1 [N2,N2-Dimethylguanosine]	-0.5%	–
CC(=O)NCCc1c[nH]c2ccc(O)cc12 [N-Acetyl-5-hydroxytryptamine]	0%	–
